Source: PubChem BioAssay AID504749 (NCATS, 2011).

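Malaria parasite (P. falciparum) lines kept in red blood cells; parasite DNA is measured by SYBR Green fluorescence after lysis, 72 h after compound addition.
Each compound was titrated across a series from about 0.000037 to 29 µM.
The number is the fitted AC50, the concentration giving a half-maximal change in signal; a lower value means higher potency, whether the curve shows a decrease or an increase.
Calls follow the curve class and fit quality: every row here is inconclusive, covering signal-raising curves and weak, poorly fitted, partial or highest-dose-only inhibition curves.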

Values are in µM.
Every entry below has the call inconclusive.
These entries are mostly ones the record files as inconclusive; other results of the assay are not listed here.
Potencies fitted to partial, single-point or poorly fitting curves are rough.
The first word of each remark tells which way the curve ran; it can be opposite to the aim of the assay.

| # | compound | setting | Potency (µM) | remark |
|---|---|---|---|---|
| 1 | `CC1=NN(c2ccccc2)C(=O)C1` | W2 | 12 | inhibitor, single point |
| 2 | `CC1=NN(c2ccccc2)C(=O)C1` | ICS | 10 | inhibitor, partial curve, poor fit |
| 3 | `N#CN` | DIV30 | 1.694 | inhibitor, partial curve, poor fit |
| 4 | `Cc1cc(CC(C)CC(C)(C)C)n(O)c(=O)c1` (centres unmarked) | PC49 | 11.22 | inhibitor, single point |
| 5 | `O=C(O)CN(CCN(CC(=O)O)CC(=O)O)CCN(CC(=O)O)CC(=O)O` | DIV17 | 0.1069 | inhibitor, full curve, poor fit |
| 6 | `NCC1(CC(=O)O)CCCCC1` | CP335 | 0.9074 | inhibitor, partial curve, poor fit |
| 7 | `C=CCN1CCCC1CNC(=O)c1cc(S(N)(=O)=O)cc(OC)c1OC` (centres unmarked) | DFO2036 | 1 | inhibitor, single point |
| 8 | `CO[C@H]1C[C@@H]2CC[C@@H](C)[C@@](O)(O2)C(=O)C(=O)N2CCCC[C@H]2C(=O)O[C@H]([C@H](C)C[C@@H]2CC[C@@H](OCCO)[C@H](OC)C2)CC(=O)[C@H](C)/C=C(\C)[C@@H](O)[C@@H](OC)C(=O)[C@H](C)C[C@H](C)/C=C/C=C/C=C/1C` | FAB9 | 10 | inhibitor, single point |
| 9 | `C[S+](C)CC[C@H](N)C(=O)O` | DIV17 | 0.0107 | activator, full curve, poor fit |
| 10 | `O=C(O)COCCN1CCN([C@@H](c2ccccc2)c2ccc(Cl)cc2)CC1` | P93_24 | 6.31 | inhibitor, single point |
| 11 | `O=C(O)COCCN1CCN([C@@H](c2ccccc2)c2ccc(Cl)cc2)CC1` | CP191 | 10 | inhibitor, single point |
| 12 | `O=C(O)COCCN1CCN([C@@H](c2ccccc2)c2ccc(Cl)cc2)CC1` | HB3 | 7.943 | inhibitor, single point |
| 13 | `O=C(O)COCCN1CCN([C@@H](c2ccccc2)c2ccc(Cl)cc2)CC1` | GB4 | 8.087 | inhibitor, single point |
| 14 | `O=C(O)COCCN1CCN([C@@H](c2ccccc2)c2ccc(Cl)cc2)CC1` | ICS | 3.162 | inhibitor, partial curve |
| 15 | `O=C(O)COCCN1CCN([C@@H](c2ccccc2)c2ccc(Cl)cc2)CC1` | DIV17 | 8.087 | inhibitor, single point |
| 16 | `O=C(O)COCCN1CCN([C@@H](c2ccccc2)c2ccc(Cl)cc2)CC1` | 7G8 | 3.981 | inhibitor, single point |
| 17 | `COc1cc(C(=O)NCCCCCC(=O)O)cc(OC)c1OC` | W2 | 0.2133 | activator |
| 18 | `COc1ccc(C(=O)N2CCCC2=O)cc1` | DIV17 | 16.94 | inhibitor, partial curve, poor fit |
| 19 | `COc1ccc(C(=O)N2CCCC2=O)cc1` | CP297 | 19.01 | inhibitor, partial curve, poor fit |
| 20 | `COc1ccc(C(=O)N2CCCC2=O)cc1` | CP291 | 13.46 | inhibitor, partial curve, poor fit |
| 21 | `Oc1ccc(Cl)cc1` | CP335 | 4.256 | inhibitor, single point |
| 22 | `CC(CCC(=O)O)C1CCC2C3C(=O)C[C@@H]4CC(=O)CC[C@@]4(C)C3CC(=O)[C@]12C` (some centres unmarked) | CP335 | 4.256 | inhibitor, single point |
| 23 | `CC(CCC(=O)O)C1CCC2C3C(=O)C[C@@H]4CC(=O)CC[C@@]4(C)C3CC(=O)[C@]12C` (some centres unmarked) | W2 | 2.393 | inhibitor, partial curve, poor fit |
| 24 | `CC(CCC(=O)O)C1CCC2C3C(=O)C[C@@H]4CC(=O)CC[C@@]4(C)C3CC(=O)[C@]12C` (some centres unmarked) | DIV17 | 0.4256 | inhibitor, full curve, poor fit |
| 25 | `CC(CCC(=O)O)C1CCC2C3C(=O)C[C@@H]4CC(=O)CC[C@@]4(C)C3CC(=O)[C@]12C` (some centres unmarked) | DIV14 | 0.0005 | inhibitor |
| 26 | `CC[N+](CC)(CC(=O)Nc1c(C)cccc1C)Cc1ccccc1` | W2 | 0.6746 | inhibitor, partial curve, poor fit |
| 27 | `Nc1ccc(S(=O)(=O)c2ccc(N)cc2)cc1` | 7G8 | 12.59 | inhibitor, single point |
| 28 | `CCCCc1cc2ccccc2c(OCCN(C)C)n1` | CP237 | 3.548 | inhibitor, partial curve |
| 29 | `CCCCc1cc2ccccc2c(OCCN(C)C)n1` | W2 | 2.869 | inhibitor, partial curve |
| 30 | `CC[C@H]1NC(=O)c2cc(S(N)(=O)=O)c(Cl)cc2N1` | CP215 | 8.087 | inhibitor, single point |
| 31 | `CC[C@H]1NC(=O)c2cc(S(N)(=O)=O)c(Cl)cc2N1` | PC26 | 5.726 | inhibitor, partial curve |
| 32 | `COC(=O)CCC[N+](C)(C)C` | DIV14 | 13.46 | inhibitor, partial curve, poor fit |
| 33 | `Cc1[nH]c(=O)c(C#N)cc1-c1ccncc1` | CP250 | 1.995 | activator, single point |
| 34 | `CC1=C(/C=C/C(C)=C/C=C/C(C)=C/C(=O)O)C(C)(C)CCC1` | CP297 | 0.001 | activator |
| 35 | `O=C(OCCOCCO)c1ccccc1Nc1cccc(C(F)(F)F)c1` | CP203 | 0.0072 | inhibitor, full curve, poor fit |

For reference, 4 entries once more:

| compound | setting | Potency (µM) | remark |
|---|---|---|---|
| `O=C(O)COCCN1CCN([C@@H](c2ccccc2)c2ccc(Cl)cc2)CC1` | CP191 | 10 | inhibitor, single point |
| `COc1ccc(C(=O)N2CCCC2=O)cc1` | CP297 | 19.01 | inhibitor, partial curve, poor fit |
| `CC(CCC(=O)O)C1CCC2C3C(=O)C[C@@H]4CC(=O)CC[C@@]4(C)C3CC(=O)[C@]12C` (some centres unmarked) | CP335 | 4.256 | inhibitor, single point |
| `N#CN` | DIV30 | 1.694 | inhibitor, partial curve, poor fit |